No constants are given. Whether binding was seen depends on the method and setting. For part of these data: Binding seen in cells or lysates may run through a third protein. Some binding calls cover weakened binding; strength is not graded here.
Tests used:
[1] = molecular target: Ubiquitin-specific protease 7 (USP7) (human (endogenous in PLC-PRF-5 and HepG2)) (UniProt Q93009); experiment: SEC; PLC-PRF-5 cell extracts on Superdex 200 10/300 GL in 1x PBS, 0.5 mL/min; fractions blotted for USP7 and YY1; overlap peaked at fraction 17
[2] = molecular target: Ubiquitin-specific protease 7 (USP7) (human (endogenous in PLC-PRF-5 and HepG2)) (UniProt Q93009); experiment: co-IP; PLC-PRF-5 and HepG2 cell lysates (0.3% Nonidet P-40 lysis buffer) on antibody-conjugated protein A/G agarose, 12 h; Western blot with USP7 and YY1 antibodies
[3] = molecular target: Ubiquitin-specific protease 7 (USP7) (human (endogenous in PLC-PRF-5 and HepG2)) (UniProt Q93009); experiment: proximity ligation; duo-link PLA in PLC-PRF-5 and HepG2 cells; red dots indicate protein interaction

Amino acid sequences for entries named in this document (tags omitted).
UniProt Q93009: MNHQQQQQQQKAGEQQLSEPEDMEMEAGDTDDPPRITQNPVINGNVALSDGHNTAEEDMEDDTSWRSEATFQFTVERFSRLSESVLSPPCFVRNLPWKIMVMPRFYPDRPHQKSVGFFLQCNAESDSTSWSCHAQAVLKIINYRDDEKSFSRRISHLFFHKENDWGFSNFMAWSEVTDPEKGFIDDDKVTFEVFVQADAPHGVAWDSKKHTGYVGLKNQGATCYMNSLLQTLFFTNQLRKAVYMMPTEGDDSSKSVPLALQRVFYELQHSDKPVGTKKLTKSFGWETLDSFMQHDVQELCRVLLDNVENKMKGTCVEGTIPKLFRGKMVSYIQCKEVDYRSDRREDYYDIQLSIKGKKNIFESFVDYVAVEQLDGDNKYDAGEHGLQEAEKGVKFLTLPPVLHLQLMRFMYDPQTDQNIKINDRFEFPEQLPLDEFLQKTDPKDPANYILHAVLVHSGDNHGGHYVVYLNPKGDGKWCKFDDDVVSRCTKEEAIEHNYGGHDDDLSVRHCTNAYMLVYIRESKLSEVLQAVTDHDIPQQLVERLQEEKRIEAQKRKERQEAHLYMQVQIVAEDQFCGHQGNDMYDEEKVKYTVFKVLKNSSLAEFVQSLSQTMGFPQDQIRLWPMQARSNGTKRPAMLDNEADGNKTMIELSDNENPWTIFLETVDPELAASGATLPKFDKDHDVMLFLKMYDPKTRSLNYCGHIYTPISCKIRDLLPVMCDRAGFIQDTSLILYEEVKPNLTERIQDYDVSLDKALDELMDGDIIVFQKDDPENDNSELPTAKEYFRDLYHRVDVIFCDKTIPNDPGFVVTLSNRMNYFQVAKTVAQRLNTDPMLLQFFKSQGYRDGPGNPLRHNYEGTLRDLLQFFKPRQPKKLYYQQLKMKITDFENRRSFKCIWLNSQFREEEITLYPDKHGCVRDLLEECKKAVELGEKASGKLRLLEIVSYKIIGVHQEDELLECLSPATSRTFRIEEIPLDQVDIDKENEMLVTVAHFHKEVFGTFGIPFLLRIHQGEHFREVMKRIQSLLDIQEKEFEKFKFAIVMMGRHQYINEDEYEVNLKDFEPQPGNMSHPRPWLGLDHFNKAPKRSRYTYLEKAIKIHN
UniProt P25490: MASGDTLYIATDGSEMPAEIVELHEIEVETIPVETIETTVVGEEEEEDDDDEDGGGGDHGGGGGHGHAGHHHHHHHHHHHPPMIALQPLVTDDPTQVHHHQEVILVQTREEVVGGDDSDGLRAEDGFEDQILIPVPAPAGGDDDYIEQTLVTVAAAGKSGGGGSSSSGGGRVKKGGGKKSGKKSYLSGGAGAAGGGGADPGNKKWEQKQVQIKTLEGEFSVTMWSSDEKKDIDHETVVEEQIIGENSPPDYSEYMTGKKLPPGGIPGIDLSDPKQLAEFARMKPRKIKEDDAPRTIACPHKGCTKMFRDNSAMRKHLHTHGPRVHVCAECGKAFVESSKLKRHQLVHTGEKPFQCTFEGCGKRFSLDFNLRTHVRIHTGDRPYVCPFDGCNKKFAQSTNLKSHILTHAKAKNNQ

Measured: binding

Yin-yang-1 (YY1) (from UniProt P25490 1-414)
binds: all assays above

— paper PMC10321013
